In paper PMC6281582:
These are yes or no findings as the source states them, for the method shown. In cells and extracts the contact can be indirect. Some entries that bind do so weakly or less than the wild type.

Sequences of proteins named here, by UniProt entry; tags and fusion partners are left off. A change or cut given only in a name is not applied to a line headed by its entry. A line that says so, or that is headed by a name, gives the form on record, which may keep a tag or linker.
UniProt O43524: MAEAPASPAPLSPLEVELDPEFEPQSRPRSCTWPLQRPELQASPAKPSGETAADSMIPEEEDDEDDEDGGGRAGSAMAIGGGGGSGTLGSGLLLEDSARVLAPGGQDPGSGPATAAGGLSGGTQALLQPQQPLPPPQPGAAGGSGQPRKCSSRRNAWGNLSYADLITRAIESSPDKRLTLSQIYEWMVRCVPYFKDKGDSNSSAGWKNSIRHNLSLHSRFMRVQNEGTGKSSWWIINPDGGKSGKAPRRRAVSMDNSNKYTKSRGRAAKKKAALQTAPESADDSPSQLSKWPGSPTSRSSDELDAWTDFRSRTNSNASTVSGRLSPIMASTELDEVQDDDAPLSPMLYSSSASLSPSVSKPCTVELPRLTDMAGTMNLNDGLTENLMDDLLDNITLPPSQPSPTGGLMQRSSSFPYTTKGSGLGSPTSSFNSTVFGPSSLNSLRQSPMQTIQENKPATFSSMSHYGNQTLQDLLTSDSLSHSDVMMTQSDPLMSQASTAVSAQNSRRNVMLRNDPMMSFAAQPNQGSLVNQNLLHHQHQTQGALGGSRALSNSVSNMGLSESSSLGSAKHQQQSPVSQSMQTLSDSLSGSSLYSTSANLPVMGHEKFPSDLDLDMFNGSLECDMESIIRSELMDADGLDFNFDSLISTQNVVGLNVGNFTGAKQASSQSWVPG
FOXO3a TM mutant (T32, S253 and S315 changed to alanine) (O43524, form named): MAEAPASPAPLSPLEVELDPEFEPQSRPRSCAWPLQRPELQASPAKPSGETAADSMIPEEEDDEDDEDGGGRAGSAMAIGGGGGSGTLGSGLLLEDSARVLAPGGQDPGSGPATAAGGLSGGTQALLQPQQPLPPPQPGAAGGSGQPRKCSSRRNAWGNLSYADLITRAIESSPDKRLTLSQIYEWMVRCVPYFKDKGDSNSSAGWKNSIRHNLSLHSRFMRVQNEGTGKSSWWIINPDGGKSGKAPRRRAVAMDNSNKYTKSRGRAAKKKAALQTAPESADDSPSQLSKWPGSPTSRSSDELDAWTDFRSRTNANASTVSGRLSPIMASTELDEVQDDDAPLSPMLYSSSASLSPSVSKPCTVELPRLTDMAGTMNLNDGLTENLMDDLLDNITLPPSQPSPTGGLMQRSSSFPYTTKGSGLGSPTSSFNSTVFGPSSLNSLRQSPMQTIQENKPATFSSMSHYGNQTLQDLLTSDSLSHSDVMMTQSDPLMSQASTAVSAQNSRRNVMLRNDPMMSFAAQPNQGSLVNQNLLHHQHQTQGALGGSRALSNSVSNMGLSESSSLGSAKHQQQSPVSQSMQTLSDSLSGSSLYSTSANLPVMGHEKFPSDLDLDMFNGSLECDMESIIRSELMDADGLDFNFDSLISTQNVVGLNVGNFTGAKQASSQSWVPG
UniProt Q8N6T7: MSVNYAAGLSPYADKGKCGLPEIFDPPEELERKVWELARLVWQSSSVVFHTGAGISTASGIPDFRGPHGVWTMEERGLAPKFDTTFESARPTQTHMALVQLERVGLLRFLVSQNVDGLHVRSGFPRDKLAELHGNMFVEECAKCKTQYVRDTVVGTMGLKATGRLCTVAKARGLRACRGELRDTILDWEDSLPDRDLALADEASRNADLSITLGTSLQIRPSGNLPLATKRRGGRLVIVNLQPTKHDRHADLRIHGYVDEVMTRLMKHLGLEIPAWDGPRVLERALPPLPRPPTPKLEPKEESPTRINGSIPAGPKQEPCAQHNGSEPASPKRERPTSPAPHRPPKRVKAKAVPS

Columns and labels:
[1] = molecular target: HA-tagged FOXO3a, wild type (UniProt O43524); assay: co-IP; FOXO3a (WT or TM) and Flag-SirT6 (WT or S338 mutants) expressed in HEK293 cells treated with 1 μM MK2206; IP of FOXO3a, western blot with anti-Flag
[2] = molecular target: HA-tagged FOXO3a, wild type (UniProt O43524); assay: co-IP; tagged proteins co-expressed in HEK293 cells; IP with anti-HA (FOXO3a), western blot with anti-Flag; for BRD4, BD1 and BD2 cells treated with 1 μM MK2206 for 2 days or 2 μM TSA + 4 mM nicotinamide overnight; for Sirt members cells without AKTi
[3] = molecular target: FOXO3a TM mutant (T32, S253 and S315 changed to alanine) (UniProt O43524); assay: co-IP; FOXO3a (WT or TM) and Flag-SirT6 (WT or S338 mutants) expressed in HEK293 cells treated with 1 μM MK2206; IP of FOXO3a, western blot with anti-Flag
[4] = molecular target: FOXO3a TM mutant (T32, S253 and S315 changed to alanine) (UniProt O43524); assay: co-IP; tagged proteins co-expressed in HEK293 cells; IP with anti-HA (FOXO3a), western blot with anti-Flag; for BRD4, BD1 and BD2 cells treated with 1 μM MK2206 for 2 days or 2 μM TSA + 4 mM nicotinamide overnight; for Sirt members cells without AKTi
[5] = molecular target: FOXO3a (endogenous) (human (endogenous in BT474 and T47D)) (UniProt O43524); assay: condition: only cells treated with AKTi (1 μM) for 4 day; co-IP; endogenous proteins from BT474 and T47D cells treated with AKTi (MK2206, AZD5363 or GSK690693, 1 μM); IP with FOXO3a or AKT antibody, western blot for SirT6
[6] = molecular target: FOXO3a (endogenous) (human (endogenous in BT474 and T47D)) (UniProt O43524); assay: co-IP; endogenous proteins from BT474 and T47D cell extracts; IP buffer 50 mM Tris-HCl pH 7.4, 150 mM NaCl, 0.2 mM EDTA, 0.2% NP40, 10% glycerol; IP with FOXO3a or AKT antibody and Protein G-Sepharose, western blot; cells untreated or treated with AKTi (1 μM, up to 4 days), TSA (2 μM) + nicotinamide (4 mM) overnight, or Lapatinib (1 μM, 4 days)

Row | binding [1] | binding [2] | binding [4] | binding [5] | binding [6] | Substance | binding [3]
1 | binds | binds | – | – | – | SirT6 S338E mutant (from UniProt Q8N6T7 1-355) | –
2 | binds | binds | binds | – | – | Flag-tagged SirT6, wild type (from UniProt Q8N6T7 1-355) | no binding (condition: cells treated with 1 μM MK2206)
3 | – | – | – | no binding | binds | SirT6 (endogenous) (from UniProt Q8N6T7 1-355) | –
